Test results: PMC6092110
These are yes or no findings as the source states them, for the method shown. In cells and extracts the contact can be indirect.

Molecular target: Dkk3-His tagged, Q9QUN9
Assay: pull-down; His-tag pull-down (MagneHis Protein Purification System, nickel magnetic beads); Sca-1+ cells treated with Dkk3-His tagged, Dkk3-His pulled down from the cell lysate, receptors detected by immunoblot; only the target purified
Conditions: remark: other sources report otherwise

- binding: no binding
B1: Kremen1, endogenous in Sca-1+ VPCs, Q99N43 20-473 (receptor)
chain: ARPAPGPRSGPECFTANGADYRGTQSWTALQGGKPCLFWNETFQHPYNTLKYPNGEGGLGEHNYCRNPDGDVSPWCYVAEHEDGVYWKYCEIPACQMPGNLGCYKDHGNPPPLTGTSKTSNKLTIQTCISFCRSQRFKFAGMESGYACFCGNNPDYWKHGEAASTECNSVCFGDHTQPCGGDGRIILFDTLVGACGGNYSAMAAVVYSPDFPDTYATGRVCYWTIRVPGASRIHFNFTLFDIRDSADMVELLDGYTHRVLVRLSGRSRPPLSFNVSLDFVILYFFSDRINQAQGFAVLYQATKEEPPQERPAVNQTLAEVITEQANLSVSAAHSSKVLYVITPSPSHPPQTAPGSHSWAPSVGANSHRVEGWTVYGLATLLILTVTAVVAKILLHVTFKSHRVPASGDLRDCRQPGASGDIWTIFYEPSTTISIFKKKLKGQSQQDDRNPLVSD
